At least one structure is not confirmed: it was looked up by name or label, or the drawing left a doubt.
Test system: NO synthase
Experiment: NO production by EC in tripartite vessels (conversion of L-3H-arginine to L-3H-citruline)
Type: cell-based, human
Conditions: 10 nM acetylcholine or 200 μg/ml HDL for 60 minutes
Description: Nitric oxide (NO) synthesis was measured using a commercial nitric oxide synthesis (NOS) activity assay kit (Caymenchemical). Briefly, a 2-3 mm ring of vascular tissue was mechanically ground in 150 μl of ice-cold homogenized buffer (25 mM Tris-Cl, pH7.4, 1 mM EDTA and 1 mM EGTA) and centrifuged 15 min at 4° C. at 10,000 g. The supernatant was aliquoted and incubated in reaction buffer containing 25 mM Tris-Cl, pH7.4, 0.25 mM EDTA, 0.6 mM CaCl2, 1 mM NADP, 200 nM calmodulin, 3 μM tetrahydrobiopterin, 1 μM flavin adenine dinucleotide, 1 μM flavin adenine monoucleotide and 0.2 μCi L-^3H-arginine; PerkinElmer) in the presence of 10 nM acetylcholine (Ach), 0.2 mg/ml HDL or 1 mM L-NG-nitroarginine methyl ester (L-NAME). After 60 min at 37° C., the reaction was stopped by adding 400 μl of stop buffer ([…] HEPES, 5 mM EDTA, pH 5.5). […] Scintillation mix (Ultimate Gold, PerkinElmer) was added to the supernatant and counted using LS6500 β-counter (Beckman Coulter). The percent citrulline formed was calculated as follows: % conversion=(cpm reaction-cpm background)/cpm total*100.
The functionality of EC and astrocytes within tripartite bioengineered vessels was evaluated by measuring nitric oxide (NO) produced by EC and native apoE secreted by astrocytes, which were genotyped as apoE3/apoE3. […]

## CC(=O)OCC[N+](C)(C)C [acetylcholine]
  conversion of L-3H-arginine to L-3H-citruline (NO production): significant increase
